Experimental findings from PMC11102558 are described below.

By UniProt entry, the sequences of proteins in these tests, tags left out.
UniProt P46940: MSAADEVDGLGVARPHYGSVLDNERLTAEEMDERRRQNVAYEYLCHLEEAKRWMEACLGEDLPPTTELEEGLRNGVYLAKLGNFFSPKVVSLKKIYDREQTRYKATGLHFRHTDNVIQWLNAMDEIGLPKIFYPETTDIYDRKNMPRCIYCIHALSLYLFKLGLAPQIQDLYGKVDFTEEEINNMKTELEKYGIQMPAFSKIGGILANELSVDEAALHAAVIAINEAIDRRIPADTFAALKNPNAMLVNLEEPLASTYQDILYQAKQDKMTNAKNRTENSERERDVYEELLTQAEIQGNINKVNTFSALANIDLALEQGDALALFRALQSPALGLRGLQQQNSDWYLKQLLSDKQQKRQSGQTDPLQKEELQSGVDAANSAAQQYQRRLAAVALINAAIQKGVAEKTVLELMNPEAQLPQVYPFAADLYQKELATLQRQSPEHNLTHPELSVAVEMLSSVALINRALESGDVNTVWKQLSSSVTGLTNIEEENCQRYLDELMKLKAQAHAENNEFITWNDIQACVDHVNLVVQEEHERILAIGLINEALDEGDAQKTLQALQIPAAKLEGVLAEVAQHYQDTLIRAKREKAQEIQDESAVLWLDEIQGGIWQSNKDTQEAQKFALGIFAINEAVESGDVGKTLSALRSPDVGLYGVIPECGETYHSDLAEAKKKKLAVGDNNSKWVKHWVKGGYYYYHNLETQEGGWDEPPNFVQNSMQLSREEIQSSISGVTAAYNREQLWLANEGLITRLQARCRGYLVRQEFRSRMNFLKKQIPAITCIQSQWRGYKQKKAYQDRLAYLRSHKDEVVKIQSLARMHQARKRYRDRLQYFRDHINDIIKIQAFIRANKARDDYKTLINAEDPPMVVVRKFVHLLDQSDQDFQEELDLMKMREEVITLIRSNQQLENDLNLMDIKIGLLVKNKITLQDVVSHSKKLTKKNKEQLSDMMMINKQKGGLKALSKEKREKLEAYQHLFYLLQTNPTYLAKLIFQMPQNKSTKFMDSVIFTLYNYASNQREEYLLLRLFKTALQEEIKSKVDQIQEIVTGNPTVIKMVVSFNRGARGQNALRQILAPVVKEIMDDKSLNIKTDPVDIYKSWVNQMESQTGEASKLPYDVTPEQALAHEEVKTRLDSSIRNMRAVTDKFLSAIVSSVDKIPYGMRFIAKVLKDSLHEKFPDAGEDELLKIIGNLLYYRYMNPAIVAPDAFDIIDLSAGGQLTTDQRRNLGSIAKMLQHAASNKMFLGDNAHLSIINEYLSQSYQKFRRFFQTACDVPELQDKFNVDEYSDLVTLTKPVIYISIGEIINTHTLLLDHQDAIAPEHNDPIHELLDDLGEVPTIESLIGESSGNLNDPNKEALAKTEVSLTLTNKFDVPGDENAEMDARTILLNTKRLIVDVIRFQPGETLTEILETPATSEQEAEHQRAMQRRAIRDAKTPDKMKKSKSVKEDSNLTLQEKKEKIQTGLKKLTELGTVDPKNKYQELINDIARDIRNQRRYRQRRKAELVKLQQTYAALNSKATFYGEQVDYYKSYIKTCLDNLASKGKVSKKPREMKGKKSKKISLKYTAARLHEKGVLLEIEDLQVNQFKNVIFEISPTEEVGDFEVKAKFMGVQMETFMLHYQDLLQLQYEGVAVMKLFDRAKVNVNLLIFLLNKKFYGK

The target in experiment [1] is T1, FLAG-tagged ROBO4 expressed in COS-7 cells (pHMEF5-ROBO4-FLAG) (UniProt Q8WZ75).
T1 sequence: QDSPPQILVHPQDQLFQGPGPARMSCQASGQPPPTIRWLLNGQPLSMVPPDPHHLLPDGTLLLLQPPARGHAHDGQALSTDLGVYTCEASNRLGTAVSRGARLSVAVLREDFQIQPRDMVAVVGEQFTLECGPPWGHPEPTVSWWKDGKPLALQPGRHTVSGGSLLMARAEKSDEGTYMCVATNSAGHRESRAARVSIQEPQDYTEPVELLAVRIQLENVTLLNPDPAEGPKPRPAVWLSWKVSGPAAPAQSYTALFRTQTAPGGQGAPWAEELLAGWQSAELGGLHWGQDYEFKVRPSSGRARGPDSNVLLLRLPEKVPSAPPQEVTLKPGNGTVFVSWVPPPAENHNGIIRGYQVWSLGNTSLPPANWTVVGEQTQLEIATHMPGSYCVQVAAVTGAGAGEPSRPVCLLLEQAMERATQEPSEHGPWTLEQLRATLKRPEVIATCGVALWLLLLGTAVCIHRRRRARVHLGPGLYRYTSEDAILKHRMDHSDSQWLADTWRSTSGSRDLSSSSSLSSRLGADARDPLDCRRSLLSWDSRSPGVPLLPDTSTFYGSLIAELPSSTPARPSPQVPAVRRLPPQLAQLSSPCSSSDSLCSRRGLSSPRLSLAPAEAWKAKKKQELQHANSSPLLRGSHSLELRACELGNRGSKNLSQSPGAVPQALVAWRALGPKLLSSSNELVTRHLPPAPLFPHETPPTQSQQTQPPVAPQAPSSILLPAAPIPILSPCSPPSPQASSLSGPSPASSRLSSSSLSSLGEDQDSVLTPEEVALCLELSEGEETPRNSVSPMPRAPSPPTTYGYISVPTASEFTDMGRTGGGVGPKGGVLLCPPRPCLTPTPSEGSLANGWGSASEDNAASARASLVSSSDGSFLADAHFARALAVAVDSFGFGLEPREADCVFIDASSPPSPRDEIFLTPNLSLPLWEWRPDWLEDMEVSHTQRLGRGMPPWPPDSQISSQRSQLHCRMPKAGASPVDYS
As to the kind of experiment: co-IP; COS-7 cells transfected with FLAG-tagged ROBO4 and Myc-tagged IQGAP1, 24 h; lysates immunoprecipitated with anti-FLAG antibody; western blotting. (A western blot detects proteins with antibodies after separation by electrophoresis.)

Experiment [2] concerns the target IQGAP1, endogenous in HEK293 cells (human (endogenous in HEK293)) (UniProt P46940). As to the kind of experiment: co-IP; HEK293 cells transfected with ROBO4 and TRAF7 expression vectors; lysates immunoprecipitated with antibody against endogenous IQGAP1 (C-9 AC); western blotting.

These are yes or no findings as the source states them, for the method shown. In cells and extracts the contact can be indirect. Some results given as binding are weak or reduced against the parent protein; the word gives no strength. For part of these data: Sequences can lack the tags named with a protein.

Turning to “Myc-tagged IQGAP1 expressed in COS-7 cells (pcDNA4-IQGAP1-Myc) (from UniProt P46940 1-1657)”, the binding result in experiment [1] is on record as “binds”.

B1: TNF receptor-associated factor 7 (TRAF7) expressed in HEK293 cells (pcDNA3-TRAF7) (enzyme, UniProt Q6Q0C0 1-670)
chain: MSSGKSARYNRFSGGPSNLPTPDVTTGTRMETTFGPAFSAVTTITKADGTSTYKQHCRTPSSSSTLAYSPRDEEDSMPPISTPRRSDSAISVRSLHSESSMSLRSTFSLPEEEEEPEPLVFAEQPSVKLCCQLCCSVFKDPVITTCGHTFCRRCALKSEKCPVDNVKLTVVVNNIAVAEQIGELFIHCRHGCRVAGSGKPPIFEVDPRGCPFTIKLSARKDHEGSCDYRPVRCPNNPSCPPLLRMNLEAHLKECEHIKCPHSKYGCTFIGNQDTYETHLETCRFEGLKEFLQQTDDRFHEMHVALAQKDQEIAFLRSMLGKLSEKIDQLEKSLELKFDVLDENQSKLSEDLMEFRRDASMLNDELSHINARLNMGILGSYDPQQIFKCKGTFVGHQGPVWCLCVYSMGDLLFSGSSDKTIKVWDTCTTYKCQKTLEGHDGIVLALCIQGCKLYSGSADCTIIVWDIQNLQKVNTIRAHDNPVCTLVSSHNVLFSGSLKAIKVWDIVGTELKLKKELTGLNHWVRALVAAQSYLYSGSYQTIKIWDIRTLDCIHVLQTSGGSVYSIAVTNHHIVCGTYENLIHVWDIESKEQVRTLTGHVGTVYALAVISTPDQTKVFSASYDRSLRVWSMDNMICTQTLLRHQGSVTALAVSRGRLFSGAVDSTVKVWTC
Consider B1, for which, in experiment [2], the binding entry is “binds”.

B2: ROBO4 expressed in HEK293 cells (pcDNA3-ROBO4) (receptor, UniProt Q8WZ75 28-1007)
chain: QDSPPQILVHPQDQLFQGPGPARMSCQASGQPPPTIRWLLNGQPLSMVPPDPHHLLPDGTLLLLQPPARGHAHDGQALSTDLGVYTCEASNRLGTAVSRGARLSVAVLREDFQIQPRDMVAVVGEQFTLECGPPWGHPEPTVSWWKDGKPLALQPGRHTVSGGSLLMARAEKSDEGTYMCVATNSAGHRESRAARVSIQEPQDYTEPVELLAVRIQLENVTLLNPDPAEGPKPRPAVWLSWKVSGPAAPAQSYTALFRTQTAPGGQGAPWAEELLAGWQSAELGGLHWGQDYEFKVRPSSGRARGPDSNVLLLRLPEKVPSAPPQEVTLKPGNGTVFVSWVPPPAENHNGIIRGYQVWSLGNTSLPPANWTVVGEQTQLEIATHMPGSYCVQVAAVTGAGAGEPSRPVCLLLEQAMERATQEPSEHGPWTLEQLRATLKRPEVIATCGVALWLLLLGTAVCIHRRRRARVHLGPGLYRYTSEDAILKHRMDHSDSQWLADTWRSTSGSRDLSSSSSLSSRLGADARDPLDCRRSLLSWDSRSPGVPLLPDTSTFYGSLIAELPSSTPARPSPQVPAVRRLPPQLAQLSSPCSSSDSLCSRRGLSSPRLSLAPAEAWKAKKKQELQHANSSPLLRGSHSLELRACELGNRGSKNLSQSPGAVPQALVAWRALGPKLLSSSNELVTRHLPPAPLFPHETPPTQSQQTQPPVAPQAPSSILLPAAPIPILSPCSPPSPQASSLSGPSPASSRLSSSSLSSLGEDQDSVLTPEEVALCLELSEGEETPRNSVSPMPRAPSPPTTYGYISVPTASEFTDMGRTGGGVGPKGGVLLCPPRPCLTPTPSEGSLANGWGSASEDNAASARASLVSSSDGSFLADAHFARALAVAVDSFGFGLEPREADCVFIDASSPPSPRDEIFLTPNLSLPLWEWRPDWLEDMEVSHTQRLGRGMPPWPPDSQISSQRSQLHCRMPKAGASPVDYS
For B2, in experiment [2], the binding result is “binds”.
